Laboratory results from PMC9270975.
Results are given in words; binding and its absence hold for the method and conditions named. Binding seen in cells or lysates may run through a third protein. Some binding calls cover weakened binding; strength is not graded here.

Biological target: T1, Mdm2 (zebrafish (endogenous in zebrafish embryos)) (UniProt O42354)
T1 sequence: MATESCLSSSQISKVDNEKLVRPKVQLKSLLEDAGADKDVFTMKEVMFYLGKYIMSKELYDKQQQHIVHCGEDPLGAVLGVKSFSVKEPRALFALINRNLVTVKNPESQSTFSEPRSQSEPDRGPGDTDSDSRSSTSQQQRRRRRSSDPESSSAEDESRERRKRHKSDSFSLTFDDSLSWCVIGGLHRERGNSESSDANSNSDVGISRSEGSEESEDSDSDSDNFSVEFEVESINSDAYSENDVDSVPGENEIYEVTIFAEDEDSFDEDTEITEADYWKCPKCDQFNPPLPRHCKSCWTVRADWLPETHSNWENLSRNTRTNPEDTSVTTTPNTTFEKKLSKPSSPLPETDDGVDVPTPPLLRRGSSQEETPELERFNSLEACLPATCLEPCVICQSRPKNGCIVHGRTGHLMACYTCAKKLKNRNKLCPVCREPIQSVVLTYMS
Test: co-IP; lysates of 28 hpf control and ncl-/- zebrafish embryos (n=25 per replicate), antibody or IgG pre-conjugated to magnetic beads, immunoblot for Mdm2 and p53; results say IP for Mdm2, methods name the p53 antibody

- binding: binds
B1: p53 protein (protein, UniProt P79734 1-373)
chain: MAQNDSQEFAELWEKNLIIQPPGGGSCWDIINDEEYLPGSFDPNFFENVLEEQPQPSTLPPTSTVPETSDYPGDHGFRLRFPQSGTAKSVTCTYSPDLNKLFCQLAKTCPVQMVVDVAPPQGSVVRATAIYKKSEHVAEVVRRCPHHERTPDGDNLAPAGHLIRVEGNQRANYREDNITLRHSVFVPYEAPQLGAEWTTVLLNYMCNSSCMGGMNRRPILTIITLETQEGQLLGRRSFEVRVCACPGRDRKTEESNFKKDQETKTMAKTTTGTKRSLVKESSSATLRPEGSKKAKGSSSDEEIFTLQVRGRERYEILKKLNDSLELSDVVPASDAEKYRQKFMTKNKKENRESSEPKQGKKLMVKDEGRSDSD
